The other results are listed elsewhere or left out.
Experiments:
Experiment in all cases: log2 fold change, soluble protein after heating vs DMSO (PISA); higher = thermal stabilisation; K562 lysate, 10 uM; active = over 0.2 and 3.5 SD of the protein, either way, in both replicates (recomputed)
[1] = compound: C1=CC=C(C=C1)[C@H](COC2=CC3=C(C=C2)NC(=O)N3)NC(=O)C4=CC=CN(C4=O)CC5=CC(=C(C=C5)F)F
Outline: (§1)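 Log-two fold change in thermal stability relative to solvent controls is reported from duplicates. For each sample, crude K562 extract from dounce-homogenised pellets in PBS pH 7.4 with 1 mM MgCl2, at 1 mg/mL protein, was treated with 10 μM compound for 30 min. Aliquots heated for 3 min across 48°C-58°C were pooled, brought to 0.5% NP-40 at 4°C and cleared at 21,000xg for 90 min. The supernatant was quantified by TMTpro 16plex LC-MS/MS with channel sums equalised.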

Chains of the proteins cited; added tags and fusions are not shown. Lines headed by an entry give the natural chain unless they say otherwise; changes in a name come on top.
UniProt Q9P2S5: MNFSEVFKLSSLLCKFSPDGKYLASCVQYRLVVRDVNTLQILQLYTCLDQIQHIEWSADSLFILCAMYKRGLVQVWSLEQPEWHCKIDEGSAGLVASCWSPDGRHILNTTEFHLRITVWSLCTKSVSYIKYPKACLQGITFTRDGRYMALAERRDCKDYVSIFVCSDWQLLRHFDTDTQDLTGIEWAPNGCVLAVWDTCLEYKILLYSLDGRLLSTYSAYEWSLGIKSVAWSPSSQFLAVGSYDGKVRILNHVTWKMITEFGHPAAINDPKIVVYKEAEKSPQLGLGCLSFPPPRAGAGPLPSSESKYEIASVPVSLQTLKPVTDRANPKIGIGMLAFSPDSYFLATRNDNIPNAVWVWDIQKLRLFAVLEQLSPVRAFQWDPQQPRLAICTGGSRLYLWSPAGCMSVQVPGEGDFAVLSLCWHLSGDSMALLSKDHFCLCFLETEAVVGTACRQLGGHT
UniProt Q9NNW5: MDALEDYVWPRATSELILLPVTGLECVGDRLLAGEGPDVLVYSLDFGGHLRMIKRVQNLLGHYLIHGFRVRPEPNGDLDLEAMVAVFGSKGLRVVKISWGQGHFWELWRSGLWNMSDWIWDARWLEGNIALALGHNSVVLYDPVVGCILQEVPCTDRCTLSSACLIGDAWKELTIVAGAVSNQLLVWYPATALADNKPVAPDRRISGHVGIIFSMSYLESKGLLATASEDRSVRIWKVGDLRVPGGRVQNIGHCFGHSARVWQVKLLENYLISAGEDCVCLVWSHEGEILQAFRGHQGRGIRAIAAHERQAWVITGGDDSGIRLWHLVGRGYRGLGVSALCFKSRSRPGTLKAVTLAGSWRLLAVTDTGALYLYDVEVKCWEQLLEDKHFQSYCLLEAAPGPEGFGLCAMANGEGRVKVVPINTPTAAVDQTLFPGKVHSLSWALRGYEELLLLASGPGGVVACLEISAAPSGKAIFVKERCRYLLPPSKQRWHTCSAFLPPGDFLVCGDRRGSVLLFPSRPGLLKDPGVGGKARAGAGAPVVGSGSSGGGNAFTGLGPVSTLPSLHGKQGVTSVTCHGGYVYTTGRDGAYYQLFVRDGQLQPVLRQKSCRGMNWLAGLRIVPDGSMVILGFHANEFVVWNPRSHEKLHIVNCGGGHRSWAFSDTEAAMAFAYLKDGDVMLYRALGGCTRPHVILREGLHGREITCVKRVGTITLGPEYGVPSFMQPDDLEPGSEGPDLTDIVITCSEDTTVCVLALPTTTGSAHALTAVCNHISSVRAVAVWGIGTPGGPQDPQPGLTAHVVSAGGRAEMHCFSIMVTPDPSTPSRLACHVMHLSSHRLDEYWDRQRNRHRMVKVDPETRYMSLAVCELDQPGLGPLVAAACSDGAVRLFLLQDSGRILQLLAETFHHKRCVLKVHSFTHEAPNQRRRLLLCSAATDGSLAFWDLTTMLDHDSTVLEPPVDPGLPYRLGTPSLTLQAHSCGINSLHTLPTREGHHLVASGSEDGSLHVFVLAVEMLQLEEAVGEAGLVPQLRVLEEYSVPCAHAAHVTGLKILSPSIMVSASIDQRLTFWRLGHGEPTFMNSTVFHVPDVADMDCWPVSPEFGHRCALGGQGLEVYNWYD
UniProt Q7Z7G8: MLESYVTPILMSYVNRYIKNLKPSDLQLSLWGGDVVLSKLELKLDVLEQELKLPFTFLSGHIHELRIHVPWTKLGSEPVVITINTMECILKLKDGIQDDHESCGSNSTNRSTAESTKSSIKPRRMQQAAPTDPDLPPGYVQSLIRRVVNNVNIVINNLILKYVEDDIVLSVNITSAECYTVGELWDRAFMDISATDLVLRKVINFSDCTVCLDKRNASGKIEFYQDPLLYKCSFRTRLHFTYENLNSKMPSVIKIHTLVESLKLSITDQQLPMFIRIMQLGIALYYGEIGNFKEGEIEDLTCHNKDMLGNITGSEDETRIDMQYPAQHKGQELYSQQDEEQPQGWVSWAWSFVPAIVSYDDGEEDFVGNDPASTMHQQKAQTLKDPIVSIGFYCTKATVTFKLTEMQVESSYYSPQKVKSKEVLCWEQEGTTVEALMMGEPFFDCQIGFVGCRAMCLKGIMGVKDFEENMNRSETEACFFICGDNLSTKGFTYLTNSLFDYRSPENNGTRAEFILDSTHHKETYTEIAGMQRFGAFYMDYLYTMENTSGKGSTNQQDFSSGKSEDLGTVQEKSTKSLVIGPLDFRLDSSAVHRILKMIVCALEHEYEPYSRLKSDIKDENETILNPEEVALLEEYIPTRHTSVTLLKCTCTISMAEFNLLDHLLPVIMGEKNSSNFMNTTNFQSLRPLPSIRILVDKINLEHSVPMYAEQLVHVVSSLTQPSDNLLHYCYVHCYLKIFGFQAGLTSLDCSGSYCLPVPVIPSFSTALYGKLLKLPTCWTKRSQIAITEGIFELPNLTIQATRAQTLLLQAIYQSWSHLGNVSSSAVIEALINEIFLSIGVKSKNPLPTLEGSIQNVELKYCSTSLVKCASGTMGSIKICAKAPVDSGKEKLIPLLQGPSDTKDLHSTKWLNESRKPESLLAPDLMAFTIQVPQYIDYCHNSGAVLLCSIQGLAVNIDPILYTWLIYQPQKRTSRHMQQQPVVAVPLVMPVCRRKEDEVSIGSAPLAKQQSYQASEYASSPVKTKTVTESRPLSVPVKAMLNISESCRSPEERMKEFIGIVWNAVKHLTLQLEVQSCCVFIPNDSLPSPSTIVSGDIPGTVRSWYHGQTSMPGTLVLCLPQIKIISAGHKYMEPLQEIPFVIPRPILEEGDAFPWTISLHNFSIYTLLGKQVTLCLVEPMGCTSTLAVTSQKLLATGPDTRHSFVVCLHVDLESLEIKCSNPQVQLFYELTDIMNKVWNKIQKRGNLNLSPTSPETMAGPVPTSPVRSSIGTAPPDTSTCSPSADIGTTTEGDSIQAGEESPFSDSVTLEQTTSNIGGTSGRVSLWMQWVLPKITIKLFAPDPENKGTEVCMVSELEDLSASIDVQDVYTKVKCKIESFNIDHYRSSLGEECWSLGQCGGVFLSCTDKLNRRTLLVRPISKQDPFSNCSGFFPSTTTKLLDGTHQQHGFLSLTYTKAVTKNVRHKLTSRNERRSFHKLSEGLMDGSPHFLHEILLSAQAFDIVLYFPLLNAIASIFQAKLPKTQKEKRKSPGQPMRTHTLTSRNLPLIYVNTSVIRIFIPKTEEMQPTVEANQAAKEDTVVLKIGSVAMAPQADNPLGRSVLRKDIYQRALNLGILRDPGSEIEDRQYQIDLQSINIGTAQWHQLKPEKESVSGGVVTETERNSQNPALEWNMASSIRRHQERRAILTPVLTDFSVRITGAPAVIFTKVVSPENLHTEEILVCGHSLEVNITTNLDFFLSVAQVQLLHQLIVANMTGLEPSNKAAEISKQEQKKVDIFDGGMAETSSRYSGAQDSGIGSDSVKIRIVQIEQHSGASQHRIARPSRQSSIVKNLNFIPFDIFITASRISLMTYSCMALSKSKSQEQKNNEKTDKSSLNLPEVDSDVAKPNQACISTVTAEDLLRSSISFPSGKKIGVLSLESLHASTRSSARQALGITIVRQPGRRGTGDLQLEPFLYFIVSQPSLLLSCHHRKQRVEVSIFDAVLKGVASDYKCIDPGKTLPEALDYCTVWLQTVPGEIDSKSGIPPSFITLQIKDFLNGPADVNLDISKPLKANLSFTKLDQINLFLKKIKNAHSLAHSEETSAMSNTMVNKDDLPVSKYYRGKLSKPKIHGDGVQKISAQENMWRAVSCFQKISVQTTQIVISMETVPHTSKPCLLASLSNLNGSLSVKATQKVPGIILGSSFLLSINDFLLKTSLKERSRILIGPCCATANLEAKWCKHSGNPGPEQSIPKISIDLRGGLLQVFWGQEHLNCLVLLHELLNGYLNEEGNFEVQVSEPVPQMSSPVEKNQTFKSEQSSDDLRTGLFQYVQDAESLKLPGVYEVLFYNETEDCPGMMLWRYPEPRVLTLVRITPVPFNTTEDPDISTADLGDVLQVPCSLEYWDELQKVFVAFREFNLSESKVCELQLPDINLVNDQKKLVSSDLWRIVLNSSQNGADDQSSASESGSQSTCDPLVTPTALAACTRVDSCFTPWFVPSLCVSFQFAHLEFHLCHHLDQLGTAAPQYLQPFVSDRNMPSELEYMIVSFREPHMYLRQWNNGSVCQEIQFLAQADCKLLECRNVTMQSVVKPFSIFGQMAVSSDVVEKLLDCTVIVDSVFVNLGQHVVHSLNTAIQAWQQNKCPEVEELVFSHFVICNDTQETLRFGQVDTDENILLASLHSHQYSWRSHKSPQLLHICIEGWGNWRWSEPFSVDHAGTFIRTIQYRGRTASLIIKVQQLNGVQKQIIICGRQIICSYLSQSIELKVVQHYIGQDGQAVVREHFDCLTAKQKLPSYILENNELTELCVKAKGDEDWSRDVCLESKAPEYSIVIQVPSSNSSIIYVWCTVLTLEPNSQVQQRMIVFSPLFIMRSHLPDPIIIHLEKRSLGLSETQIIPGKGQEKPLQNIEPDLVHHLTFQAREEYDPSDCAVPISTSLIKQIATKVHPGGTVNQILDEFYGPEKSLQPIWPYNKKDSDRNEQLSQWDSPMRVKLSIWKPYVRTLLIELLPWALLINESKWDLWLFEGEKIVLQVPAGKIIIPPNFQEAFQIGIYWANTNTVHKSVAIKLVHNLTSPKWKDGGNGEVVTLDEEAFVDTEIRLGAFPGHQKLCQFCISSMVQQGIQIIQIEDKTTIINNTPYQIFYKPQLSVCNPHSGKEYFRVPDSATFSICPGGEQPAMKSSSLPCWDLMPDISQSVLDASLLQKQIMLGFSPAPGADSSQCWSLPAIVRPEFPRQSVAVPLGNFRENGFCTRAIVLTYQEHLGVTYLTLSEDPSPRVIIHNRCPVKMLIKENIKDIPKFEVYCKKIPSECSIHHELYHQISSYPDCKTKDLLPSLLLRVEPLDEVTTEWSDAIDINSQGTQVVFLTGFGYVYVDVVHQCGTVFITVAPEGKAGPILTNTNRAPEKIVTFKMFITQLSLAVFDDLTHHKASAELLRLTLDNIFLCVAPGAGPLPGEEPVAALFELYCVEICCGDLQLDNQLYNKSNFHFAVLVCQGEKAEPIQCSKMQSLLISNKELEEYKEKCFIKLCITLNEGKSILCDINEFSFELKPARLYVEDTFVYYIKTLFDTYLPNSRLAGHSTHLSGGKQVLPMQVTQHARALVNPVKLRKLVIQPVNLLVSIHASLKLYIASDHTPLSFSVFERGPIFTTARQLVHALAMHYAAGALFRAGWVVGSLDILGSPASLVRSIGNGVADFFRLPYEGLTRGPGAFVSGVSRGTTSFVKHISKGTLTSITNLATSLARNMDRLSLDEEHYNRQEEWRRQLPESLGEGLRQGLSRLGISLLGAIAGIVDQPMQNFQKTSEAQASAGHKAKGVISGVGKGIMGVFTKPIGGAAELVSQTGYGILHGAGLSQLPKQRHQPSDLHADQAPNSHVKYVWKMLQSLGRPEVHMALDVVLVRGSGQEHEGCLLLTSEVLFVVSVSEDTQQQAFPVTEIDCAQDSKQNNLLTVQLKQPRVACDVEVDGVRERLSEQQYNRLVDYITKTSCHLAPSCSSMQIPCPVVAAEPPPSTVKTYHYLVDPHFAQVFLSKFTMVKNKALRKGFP
UniProt Q8IWA0: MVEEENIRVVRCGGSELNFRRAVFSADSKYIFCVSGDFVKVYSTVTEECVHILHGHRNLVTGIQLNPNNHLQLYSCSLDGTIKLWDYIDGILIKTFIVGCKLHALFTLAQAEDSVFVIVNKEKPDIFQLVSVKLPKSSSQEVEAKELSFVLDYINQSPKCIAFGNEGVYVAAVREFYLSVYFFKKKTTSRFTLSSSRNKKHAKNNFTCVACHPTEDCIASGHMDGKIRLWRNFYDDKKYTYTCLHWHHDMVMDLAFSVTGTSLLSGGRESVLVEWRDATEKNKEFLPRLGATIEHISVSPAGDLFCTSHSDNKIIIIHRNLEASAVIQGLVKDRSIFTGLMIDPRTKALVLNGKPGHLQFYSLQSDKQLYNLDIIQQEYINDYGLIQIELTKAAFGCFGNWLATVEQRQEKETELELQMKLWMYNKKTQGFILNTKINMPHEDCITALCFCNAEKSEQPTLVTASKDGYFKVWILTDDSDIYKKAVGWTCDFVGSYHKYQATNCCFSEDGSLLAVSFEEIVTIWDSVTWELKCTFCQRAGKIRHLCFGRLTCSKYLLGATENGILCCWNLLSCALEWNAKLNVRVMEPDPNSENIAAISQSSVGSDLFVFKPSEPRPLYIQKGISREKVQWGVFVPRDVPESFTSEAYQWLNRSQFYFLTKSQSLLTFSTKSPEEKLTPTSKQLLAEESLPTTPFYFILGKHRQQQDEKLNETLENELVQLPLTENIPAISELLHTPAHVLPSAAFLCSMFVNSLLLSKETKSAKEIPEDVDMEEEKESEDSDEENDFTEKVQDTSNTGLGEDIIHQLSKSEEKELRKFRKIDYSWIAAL

[2] = compound: CC1=C(SC2=C1C(=N[C@H](C3=NN=C(N32)C)CC(=O)N)C4=CC=C(C=C4)Cl)C
Outline: as §1

[3] = compound: CC1=C2C(=CC=C1)N=C(N(C2=O)C3=CC=CC=C3C)CN4C=NC5=C(N=CN=C54)N
Outline: as §1

[4] = compound: Cc1sc2c(c1C)C(c1ccc(Cl)cc1)=N[C@@H](CC(=O)OC(C)(C)C)c1nnc(C)n1-2
Outline: as §1

[5] = compound: c1ccc([C@@H]2C[C@H]2NC2CCNCC2)cc1
Outline: as §1

Measured: log2 fold change

WBP11 (UniProt Q9Y2W2)
inactive: [1] 0.043 | [2] 0.024 | [3] 0.013 | [4] 0.005 | [5] -0.041

WDR44 (UniProt Q5JSH3)
inactive: [1] 0.007 | [2] 0.011 | [3] -0.004 | [4] -0.019 | [5] -0.025

XPC (UniProt Q01831)
inactive: [1] 0.035 | [2] 0.006 | [3] -0.068 | [4] 0.025 | [5] 0.022

WDR20 isoform 7 (UniProt Q8TBZ3)
inactive: [1] -0.037 | [2] -0.002 | [3] 0.035 | [4] -0.176 | [5] -0.124

WRAP73 (UniProt Q9P2S5)
inactive: [1] 0.018 | [2] -0.034 | [3] -0.052 | [4] -0.025 | [5] 0.017

VPS26B (UniProt Q4G0F5)
inactive: [1] 0.034 | [2] -0.004 | [3] 0.001 | [4] -0.03 | [5] -0.064

WDR6 (UniProt Q9NNW5)
inactive: [1] -0.001 | [2] 0.02 | [3] 0.008 | [4] -0.021 | [5] -0.013

VPS51 (UniProt Q9UID3)
inactive: [1] -0.021 | [2] 0.034 | [3] 0.023 | [4] 0.025 | [5] 0.08

WDR41 (UniProt Q9HAD4)
inactive: [1] 0.043 | [2] 0.013 | [3] 0.02 | [4] -0.047 | [5] -0.012

WASHC3 (UniProt Q9Y3C0)
inactive: [1] 0.05 | [2] 0.089 | [3] 0.048 | [4] -0.018 | [5] -0.052

VPS37C (UniProt A5D8V6)
inactive: [1] 0.032 | [2] -0.075 | [3] -0.038 | [4] -0.021 | [5] 0.031

WASHC4 (UniProt Q2M389)
inactive: [1] 0.013 | [2] 0.002 | [3] -0.001 | [4] -0.019 | [5] 0.01

WASF1 (UniProt Q92558)
inactive: [1] -0.004 | [2] 0.016 | [3] -0.086 | [4] -0.011 | [5] -0.092

VPS13B (UniProt Q7Z7G8)
inactive: [1] 0.093 | [2] -0.057 | [3] 0.104 | [4] -0.005 | [5] -0.091

VRK1 (UniProt Q99986)
inactive: [1] -0.002 | [2] 0.017 | [3] 0.023 | [4] -0.005 | [5] 0.034

VWA5A (UniProt O00534)
inactive: [1] 0.059 | [2] 0.022 | [3] 0.023 | [4] 0.015 | [5] -0.085

VKORC1L1, A0A3B3ISV4
inactive: [1] -0.066 | [2] -0.053 | [3] -0.029 | [4] -0.018 | [5] -0.036

WDR75 (UniProt Q8IWA0)
inactive: [1] 0.029 | [2] 0.171 | [3] 0.052 | [4] -0.018 | [5] 0.04

Looked up one by one from above, two records:
VRK1 (UniProt Q99986)
inactive: [1] -0.002 | [2] 0.017 | [3] 0.023 | [4] -0.005 | [5] 0.034

WDR75 (UniProt Q8IWA0)
inactive: [1] 0.029 | [2] 0.171 | [3] 0.052 | [4] -0.018 | [5] 0.04

More records follow.

WDR61 (UniProt Q9GZS3)
inactive: [1] 0.025 | [2] -0.043 | [3] 0.022 | [4] -0.035 | [5] -0.001

VSIR (UniProt Q9H7M9)
inactive: [1] 0.003 | [2] -0.001 | [3] 0.03 | [4] -0.067 | [5] -0.018

WIZ isoform 3 (UniProt O95785)
inactive: [1] 0.005 | [2] 0.001 | [3] -0.023 | [4] -0.008 | [5] -0.004

VTN (UniProt P04004)
inactive: [1] -0.009 | [2] -0.039 | [3] -0.094 | [4] -0.053 | [5] -0.222

WDR46, A0A0G2JJL1
inactive: [1] 0.028 | [2] 0.052 | [3] -0.176 | [4] 0.037 | [5] 0.012

WDR1 (UniProt O75083)
inactive: [1] -0.011 | [2] 0.015 | [3] -0.011 | [4] 0.046 | [5] 0.073

Reference: the supplement of paper PMC10849652
